Results are given in words; binding and its absence hold for the method and conditions named. Binding seen in cells or lysates may run through a third protein. Some results given as binding are weak or reduced against the parent protein; the word gives no strength. Where a sequence is shown, tags or fusion partners need not be part of it.
Experiments:
[1] = target: T1, MESD-FLAG (mesoderm development, molecular chaperone) (mouse (from the vector's name mMESD)) (UniProt Q9ERE7); experiment: co-IP; GTM3 cells co-transfected with LRP5-MycHis and MESD-FLAG; lysate in TBS with 1% Triton X-100; IP with anti-FLAG (M2) and Protein G magnetic particles at 4 °C; blot with anti-cMyc
T1 sequence: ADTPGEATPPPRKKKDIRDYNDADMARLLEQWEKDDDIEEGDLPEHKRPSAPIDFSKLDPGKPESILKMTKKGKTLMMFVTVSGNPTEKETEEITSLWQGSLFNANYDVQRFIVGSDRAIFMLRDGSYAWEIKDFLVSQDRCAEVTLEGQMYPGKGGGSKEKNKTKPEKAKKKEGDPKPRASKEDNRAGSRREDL

By UniProt entry, the sequences of proteins in these tests, tags left out. Where a name states a change or a piece, a line headed by the entry shows the natural chain unless it says otherwise. Chains listed by the source or under a name are the forms on record and can include a tag or linker. Residues count along the entry.
LRP5.WT-MycHis (low density lipoprotein receptor-related protein 5, wild type) (O75197, residues 32-1615): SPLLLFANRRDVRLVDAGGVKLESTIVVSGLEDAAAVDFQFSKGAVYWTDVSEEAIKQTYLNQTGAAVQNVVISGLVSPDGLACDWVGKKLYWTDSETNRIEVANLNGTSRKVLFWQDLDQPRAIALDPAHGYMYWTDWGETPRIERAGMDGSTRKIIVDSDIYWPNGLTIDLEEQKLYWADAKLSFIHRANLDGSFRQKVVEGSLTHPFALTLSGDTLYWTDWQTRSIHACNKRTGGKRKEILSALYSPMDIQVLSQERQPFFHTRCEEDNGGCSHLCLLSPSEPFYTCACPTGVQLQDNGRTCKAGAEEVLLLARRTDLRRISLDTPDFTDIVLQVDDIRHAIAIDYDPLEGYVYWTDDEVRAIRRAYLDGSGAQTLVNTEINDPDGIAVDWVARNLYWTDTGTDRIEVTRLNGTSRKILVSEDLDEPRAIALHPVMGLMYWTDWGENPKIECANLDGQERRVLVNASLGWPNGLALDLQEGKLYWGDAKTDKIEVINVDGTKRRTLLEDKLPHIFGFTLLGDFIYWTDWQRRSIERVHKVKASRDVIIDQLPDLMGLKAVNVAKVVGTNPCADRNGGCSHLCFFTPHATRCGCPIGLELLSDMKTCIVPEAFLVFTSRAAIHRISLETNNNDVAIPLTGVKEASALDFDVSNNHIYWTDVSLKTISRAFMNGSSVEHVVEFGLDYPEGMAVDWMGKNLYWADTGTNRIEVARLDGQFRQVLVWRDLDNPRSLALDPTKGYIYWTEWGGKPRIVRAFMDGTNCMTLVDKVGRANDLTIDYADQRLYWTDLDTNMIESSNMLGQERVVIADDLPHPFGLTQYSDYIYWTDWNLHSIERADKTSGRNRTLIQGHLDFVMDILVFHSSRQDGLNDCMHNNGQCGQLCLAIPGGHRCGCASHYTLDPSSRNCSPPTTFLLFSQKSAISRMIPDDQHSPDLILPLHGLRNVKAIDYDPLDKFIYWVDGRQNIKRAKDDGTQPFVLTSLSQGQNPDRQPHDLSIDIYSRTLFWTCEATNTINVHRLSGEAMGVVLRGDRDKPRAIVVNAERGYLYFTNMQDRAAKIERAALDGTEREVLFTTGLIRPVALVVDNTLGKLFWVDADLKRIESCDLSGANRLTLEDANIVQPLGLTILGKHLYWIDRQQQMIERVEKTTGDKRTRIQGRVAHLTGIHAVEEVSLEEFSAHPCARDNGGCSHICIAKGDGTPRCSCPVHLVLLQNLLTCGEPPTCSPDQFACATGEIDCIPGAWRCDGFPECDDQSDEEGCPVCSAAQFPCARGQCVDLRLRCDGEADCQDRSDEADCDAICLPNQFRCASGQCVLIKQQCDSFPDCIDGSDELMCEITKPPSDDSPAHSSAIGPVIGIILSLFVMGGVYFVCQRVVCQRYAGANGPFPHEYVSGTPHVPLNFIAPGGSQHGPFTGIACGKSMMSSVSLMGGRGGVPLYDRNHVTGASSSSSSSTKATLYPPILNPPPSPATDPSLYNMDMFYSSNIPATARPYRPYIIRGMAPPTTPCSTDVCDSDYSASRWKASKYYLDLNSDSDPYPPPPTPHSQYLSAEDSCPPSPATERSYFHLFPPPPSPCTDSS
LRP5.Q89R-MycHis (O75197, form named): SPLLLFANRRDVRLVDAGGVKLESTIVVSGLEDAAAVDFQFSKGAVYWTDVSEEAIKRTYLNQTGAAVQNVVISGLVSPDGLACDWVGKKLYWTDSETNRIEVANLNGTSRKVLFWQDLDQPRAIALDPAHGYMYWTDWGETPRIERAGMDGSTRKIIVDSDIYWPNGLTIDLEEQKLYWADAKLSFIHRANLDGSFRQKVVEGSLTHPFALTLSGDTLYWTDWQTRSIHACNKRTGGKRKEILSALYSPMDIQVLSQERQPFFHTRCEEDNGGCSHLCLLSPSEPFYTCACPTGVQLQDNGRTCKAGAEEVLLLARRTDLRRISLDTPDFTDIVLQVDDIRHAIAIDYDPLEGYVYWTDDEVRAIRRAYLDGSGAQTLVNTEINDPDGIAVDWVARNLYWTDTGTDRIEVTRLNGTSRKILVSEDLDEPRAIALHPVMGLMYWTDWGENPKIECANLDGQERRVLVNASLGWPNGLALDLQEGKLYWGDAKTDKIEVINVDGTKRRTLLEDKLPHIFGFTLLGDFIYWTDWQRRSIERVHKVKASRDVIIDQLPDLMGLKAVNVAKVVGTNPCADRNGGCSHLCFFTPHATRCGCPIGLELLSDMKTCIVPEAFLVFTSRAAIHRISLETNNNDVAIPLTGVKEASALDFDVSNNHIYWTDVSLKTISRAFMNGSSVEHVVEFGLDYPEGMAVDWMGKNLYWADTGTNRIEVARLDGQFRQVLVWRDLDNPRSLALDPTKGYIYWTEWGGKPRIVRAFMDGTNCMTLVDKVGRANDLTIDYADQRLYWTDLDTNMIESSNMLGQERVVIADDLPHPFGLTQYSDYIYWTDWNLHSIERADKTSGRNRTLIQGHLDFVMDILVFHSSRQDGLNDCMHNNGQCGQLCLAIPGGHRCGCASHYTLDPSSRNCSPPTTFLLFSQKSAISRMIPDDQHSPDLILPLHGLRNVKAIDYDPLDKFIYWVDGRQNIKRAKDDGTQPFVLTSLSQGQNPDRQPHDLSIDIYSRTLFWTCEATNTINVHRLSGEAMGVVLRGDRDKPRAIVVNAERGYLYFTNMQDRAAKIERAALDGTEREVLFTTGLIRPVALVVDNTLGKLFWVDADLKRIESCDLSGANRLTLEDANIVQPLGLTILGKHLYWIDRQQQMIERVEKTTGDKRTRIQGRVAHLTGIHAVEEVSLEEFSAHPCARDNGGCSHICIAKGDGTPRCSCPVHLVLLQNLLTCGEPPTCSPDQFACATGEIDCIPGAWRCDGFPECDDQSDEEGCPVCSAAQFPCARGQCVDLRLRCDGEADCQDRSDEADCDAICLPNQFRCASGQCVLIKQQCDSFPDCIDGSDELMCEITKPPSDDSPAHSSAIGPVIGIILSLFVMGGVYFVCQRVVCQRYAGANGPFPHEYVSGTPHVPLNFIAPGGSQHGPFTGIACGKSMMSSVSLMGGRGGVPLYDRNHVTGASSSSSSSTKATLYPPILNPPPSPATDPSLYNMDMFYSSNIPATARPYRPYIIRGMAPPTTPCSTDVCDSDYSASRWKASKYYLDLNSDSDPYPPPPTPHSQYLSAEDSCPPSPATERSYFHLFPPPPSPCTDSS

[2] = target: T1, MESD-FLAG (mesoderm development, molecular chaperone) (mouse (from the vector's name mMESD)); experiment: co-IP; HEK293T/17 cells co-transfected with LRP5-MycHis and MESD-FLAG; lysate in TBS with 1% Triton X-100; IP with anti-FLAG (M2) and Protein G magnetic particles at 4 °C; blot with anti-cMyc

Row | binding [1] | binding [2] | Substance
1 | binds | binds | LRP5.Q89R-MycHis (from UniProt O75197 32-1615) (receptor)
2 | binds | binds | LRP5.WT-MycHis (low density lipoprotein receptor-related protein 5, wild type) (from UniProt O75197 32-1615)
